Results as given in patent publication US20220363748A1.
No constants are given. Whether binding was seen depends on the method and setting.

Biological target: T1, Irrelevant (human) (UniProt P07306)
T1 sequence (control antigen, biotinylated at the Avitag with BirA (p-0297), looked up): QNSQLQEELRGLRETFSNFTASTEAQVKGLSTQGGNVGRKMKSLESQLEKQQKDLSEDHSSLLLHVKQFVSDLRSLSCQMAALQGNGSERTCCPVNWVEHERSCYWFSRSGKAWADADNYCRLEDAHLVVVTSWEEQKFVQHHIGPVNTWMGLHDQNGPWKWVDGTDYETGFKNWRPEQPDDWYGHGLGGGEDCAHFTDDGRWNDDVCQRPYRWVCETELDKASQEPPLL
Experiment: condition: 10 µg/mL EGFR-Fc, with or without 10 µg/mL untagged RAGE (not on the sheet); ELISA: biotinylated antigen on streptavidin plate, EGFR-Fc with or without untagged RAGE, detection with anti-human IgG HRP

binding: no binding
Substance: EGFR-Fc (R&D Systems #344-ER-050) (from UniProt P00533 25-645) (Fc fusion)
